Measured values taken from patent US20210322508A1, “PEPTIDES AND COMPOSITIONS FOR TARGETED TREATMENT AND IMAGING” (SIGNABLOK, INC., priority 2018, published 2021).
At least one peptide structure holds a part that was inferred or is arguable (an end, a ring closure or a residue). Residues, ends and D or L forms follow the SMILES beside them.

Experiments:
[1] = system: human pancreatic cancer AsPC-1 xenograft
[2] = system: Hepa 1-6 syngeneic hepatocellular carcinoma; conditions: orthotopic Hepa 1-6; Wu et al. 2019; cited from earlier work
[3] = system: C57BL/6 mice with LPS-induced septic shock; experiment: LPS-induced septic shock: survival; assay type: in vivo, mouse; conditions: free or SLP-bound form; 30 mg/kg LPS i.p.
Method: One hour later, mice received i.p. injection of 30 mg/kg LPS from E. coli 055:B5 (Sigma). In some experiments, all formulations were i.p. administered 1 and 3 h after LPS injection. The viability of mice was examined hourly. Body weights were measured daily. In all of the animal experiments, blood samples were collected via a sub-mandibular (cheek) bleed at 90 min after administration of LPS. Statistical analysis of survival curves was performed by the Kaplan-Meier test. Comparisons were made using two-tailed Student's t test. The production of cytokines in serum was measured by a standard sandwich cytokine ELISA procedure using TNF-alpha, IL-1beta and IL-6 ELISA kits (Pierce Biotechnology, Thermo Scientific, Rockford, Ill.) according to the instructions of the manufacturer. Statistical significances in cytokine analysis ELISA data were determined by two-tailed Student's t test.
Naïve, female C57BL/6 mice at 8 to 10 weeks of age (18 to 21 g) from the Jackson Laboratory were randomly grouped (10 mice per group) and i.p. injected with vehicle or the indicated doses of dexamethasone (DEX), GF9, G-TE21, G-HV21 and G-KV21. One hour later, mice received i.p. injection of 30 mg/kg LPS from E. coli 055:B5 (Sigma). […] Body weights were measured daily. […] Statistical significances in cytokine analysis ELISA data were determined by two-tailed Student's t test.

[4] = system: human pancreatic cancer xenografts (cancer mice); experiment: monotherapy of cancer mice, statements without a single named xenograft
Method: (§1) Treatment persisted for 31, 29 and 29 days for mice containing AsPC-1, BxPC-3 and Capan-1 tumor xenografts, respectively. Mean tumor volumes are calculated and plotted. All results are expressed as the mean±SEM (n=6 mice per group). On the final day of treatment, tumor volumes were compared between the drug-treated and control groups. **, p<0.01; ***, p<0.001; ****, p<0.0001 (versus vehicle).

[5] = system: LPS-challenged mice; experiment: survival of LPS-challenged (septic shock) mice; assay type: in vivo
Source text: FIG. 15B. **, P=0.001 to 0.01 as compared with vehicle-treated animals.

[6] = system: AsPC-1, BxPC-3 and Capan-1 xenograft tumors; experiment: Human PC xenograft mouse models: tumor growth, survival, tolerability; assay type: in vivo
Method: (§2) Mice were monitored daily and tumor measurements were taken along the length and width using Vernier calipers twice weekly until sacrifice. Tumor volumes were calculated using a modified ellipsoidal formula: (Length×Width^2)/2.
Results are expressed as the mean±SEM.
as §2
Mice were monitored daily and tumor measurements were taken along the length and width using Vernier calipers twice weekly until sacrifice.

[7] = system: LPS-challenged mice; experiment: cytokine production in LPS-challenged mice; assay type: in vivo; conditions: free GF9 or GF9 in LPC
Method: Control peptide represents an equimolar mixture of two peptides, each of them comprising two amino acid domains A and B where domain A represents a non-functional 9 amino acids-long sequence of the TREM-1 inhibitory therapeutic peptide sequence wherein, Lys5 is substituted with Ala5, whereas domain B is a sulfoxidized methionine residue-containing 22 amino acids-long apolipoprotein A-I helix 4 or 6 peptide sequence, respectively. *, P=0.01 to 0.05 as compared with animals treated with 5 mg/kg TRIOPEP in free form; ***, P=0.0001 to 0.001 as compared with PBS-treated animals.

[8] = system: human pancreatic cancer PANC-1 xenograft; experiment: PANC-1 xenograft mouse model, standalone and with GEM+ABX chemotherapy; assay type: in vivo
Method: Mice were implanted subcutaneously into the right flank with PANC-1 cells in equal parts of serum-free growth medium and Matrigel. Mice were monitored daily and tumor measurements were taken along the length and width using Vernier calipers twice weekly until sacrifice. Tumor volumes were calculated using a modified ellipsoidal formula: (Length×Width^2)/2. […] Body weight were measured. Mean tumor volumes were calculated. […] Survival was evaluated using Kaplan-Meier survival curves.

[9] = system: human pancreatic cancer Capan-1 xenograft
[10] = system: Hepa 1-6 syngeneic hepatocellular carcinoma; experiment: Hepa 1-6 syngeneic hepatocellular carcinoma model; assay type: in vivo, C57BL/6 mice; conditions: Example 24
[11] = system: human pancreatic cancer BxPC-3 xenograft
Method: (B) F4/80 staining. Results are expressed as the mean±SEM (n=4 mice per group). *, p<0.05; **, p<0.01, ****, p<0.0001 (versus vehicle). […] Scale bar=200 μm.
as §1
As described herein, after tumors in AsPC-1-, BxPC-3- or Capan-1-bearing mice reached a volume of 150-200 mm^3, mice were randomized into groups and intraperitoneally (i.p.) administered once daily 5 times per week (5qw) with either vehicle (black diamonds), GA/E31-dSLP (light gray triangles) or GA/E31-sSLP (white triangles) at indicated doses. […] Mean tumor volumes are calculated and plotted. All results are expressed as the mean±SEM (n=6 mice per group). […]
Serum CSF1, VEGF and IL-6 levels were analyzed on study days 1 and 8 in BxPC-3-bearing mice treated daily 5 times per week (5qw) with either vehicle (black diamonds), GF9 (white circles) or GF9-LPC (black circles) at indicated doses. Results are expressed as the mean±SEM (n=5 mice per group). *, p<0.05; **, p<0.01; ***, p<0.001; ****, p<0.0001 (versus vehicle).

## CC(C)C[C@H](NC(=O)[C@H](Cc1ccccc1)NC(=O)CN)C(=O)N[C@@H](CO)C(=O)N[C@@H](CCCCN)C(=O)N[C@@H](CO)C(=O)N[C@@H](CC(C)C)C(=O)N[C@H](C(=O)N[C@@H](Cc1ccccc1)C(=O)O)C(C)C [GF9] (H-GFLSKSLVF-OH)
[1]
  efficacy in improving survival, 25 mg/kg GF9 compared with 2.5 mg/kg GF9-dSLP or GF9-sSLP: less effective in improving survival
[1]; vs vehicle
  survival: prolongs survival
[2]
  tumor growth (and survival), standalone treatment: inhibits tumor growth
[3]
  protection from LPS-induced septic shock / survival: protect mice from LPS-induced septic shock and prolongs survival of septic mice
[4]; 25 mg/kg GF9, 2.5 mg/kg GF9-SLP, 4 mg/kg GA/E31-SLP, 20 mg/kg PTX
  efficacy in improving survival compared with paclitaxel: comparable with that of 20 mg/kg PTX
[4]; GF9 at 2.5 mg/kg, GF9-G at 25 mg/kg, vs vehicle
  tumor growth at low dose / with control peptide: does not affect tumor growth
[5]; GF9 at 25 mg/g
  survival of septic mice: improves survival
[5]; GF9 dose of 5 mg/kg
  survival of septic mice: does not affect survival
[5]; high dose of GF9, 150 mg/kg
  survival of septic mice: contributes to earlier death
[5]; vs vehicle
  survival of LPS-challenged mice: protects mice from LPS-induced sepsis-related death
[6]; 25 mg/kg daily
  antitumor efficacy / tumor growth: showed antitumor efficacy in all three models studied
[6]; relative to vehicle control
  survival (Kaplan-Meier): prolong survival
[7]
  cytokine release in vivo: inhibits cytokine release
[8]
  survival, combined with GEM+ABX chemotherapy: at least triples survival rate
[9]
  efficacy in improving survival, 25 mg/kg GF9 compared with 2.5 mg/kg GF9-dSLP or GF9-sSLP: less effective in improving survival
[9]; vs vehicle
  survival: prolongs survival
[10]
  tumor growth and mouse survival, combination with anti-PD-L1 treatment (anticipated): significantly attenuate tumor growth and improve mouse survival
[11]
  survival rate when GF9 treatment is added to chemo (GEM+ABX): does not significantly affect survival rate
[11]; vs vehicle
  survival: prolongs survival
